According to US12391991B2, “Markers to predict macrocyclic lactone drug resistance in Dirofilaria immitis, the causative agent of heartworm disease” (priority 2013, dated 2025):
For at least one compound, name, drawing or mass did not settle the structure.

System: D. immitis Jd2009-2 isolate
Design: species or system Dirofilaria immitis
Conditions: in vivo

CO/N=C1\C[C@]2(C[C@@H]3C[C@@H](C/C=C(\C)C[C@@H](C)/C=C/C=C4\CO[C@@H]5[C@H](O)C(C)=C[C@@H](C(=O)O3)[C@]45O)O2)O[C@H](/C(C)=C/C(C)C)[C@H]1C [MOX, moxidectin]
Outcome of monthly chemoprophylaxis as recommended: at least one dog in groups of four to six dogs on these heartworm preventatives became infected
